Holding throughout (settings): Homo sapiens, SAOS-2, read-out: concentration causing 50% growth inhibition, imatinib alone
One experiment has as its system Saos2BCRP#4 cells. Nature of the experiment: cells.
Another experiment has as its system Saos2pcDNA#3#2 cells. Put plainly: Growth inhibition in vector control Saos2 cells. It counts as cell-based.
In another experiment the test system is Saos2BCRPMUT#10 cells. Put plainly: cells.

The structures appear in SMILES notation.

In the case of `Cc1ccc(NC(=O)c2ccc(CN3CCN(C)CC3)cc2)cc1Nc1nccc(-c2cccnc2)n1` [imatinib], the IC50 in the experiment with Saos2BCRP#4 cells came to 9.6 µM; in the experiment on Saos2pcDNA#3#2 cells it was 7.3 µM; with Saos2BCRPMUT#10 cells, 9.5 µM.

Values taken from US7879868B2 (Novartis AG, priority 2002, dated 2011).
